Measured values taken from patent US7718693B2, “Receptor antagonists and their methods of use” (Glaxo Group Limited, priority 2006, dated 2010).
Some results were stated once for a whole list of compounds, not compound by compound.

Molecular target: T1, human recombinant P2X7 receptors (Homo sapiens, UniProt Q99572)
T1 construct: expressed in transfected cells; host or cells: HEK293
T1 sequence (Q99572 1-595): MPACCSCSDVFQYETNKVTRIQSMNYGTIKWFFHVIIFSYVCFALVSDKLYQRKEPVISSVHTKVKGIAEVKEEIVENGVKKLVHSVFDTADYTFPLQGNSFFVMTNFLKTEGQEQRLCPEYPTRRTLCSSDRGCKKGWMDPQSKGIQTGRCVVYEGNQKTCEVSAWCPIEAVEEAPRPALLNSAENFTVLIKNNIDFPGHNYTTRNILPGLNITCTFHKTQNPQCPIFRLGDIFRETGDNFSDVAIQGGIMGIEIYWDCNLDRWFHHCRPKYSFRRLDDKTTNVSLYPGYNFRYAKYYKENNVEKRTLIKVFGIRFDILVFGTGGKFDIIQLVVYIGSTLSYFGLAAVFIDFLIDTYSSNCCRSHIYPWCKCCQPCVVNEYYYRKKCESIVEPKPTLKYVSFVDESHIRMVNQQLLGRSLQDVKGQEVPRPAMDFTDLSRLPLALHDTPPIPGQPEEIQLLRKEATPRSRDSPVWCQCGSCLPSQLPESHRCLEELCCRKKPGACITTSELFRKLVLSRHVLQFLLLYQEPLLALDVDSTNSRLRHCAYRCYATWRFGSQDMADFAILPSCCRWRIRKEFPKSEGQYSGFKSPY
Assay: Fluorescent Imaging Plate Reader (FLIPR) Ca Assay
Format: cell-based
Conditions: HEK293 cells expressing human recombinant P2X7; BzATP 60 μM; tested in FLIPR and/or ethidium assay

SMILES | pIC50 values in the FLIPR Ca Assay (blocking BzATP responses)
CC(C)N1C(=O)CC[C@H]1C(=O)NCc1ccc(F)c(Cl)c1Cl [Example E48, N-[(2,3-dichloro-4-fluorophenyl)methyl]-1-(1-methylethyl)-5-oxo-L-prolinamide] | > 4.7
Cc1c(Cl)cccc1CNC(=O)[C@@H]1CCC(=O)N1C(C)C [Example E49, N-[(3-chloro-2-methylphenyl)methyl]-1-(1-methylethyl)-5-oxoprolinamide] | > 4.7
CCN1C(=O)CC[C@H]1C(=O)NCc1cccc(C)c1C [Example E50, N-[(2,3-dimethylphenyl)methyl]-1-ethyl-5-oxoprolinamide] | > 4.7
CN1C(=O)CC[C@H]1C(=O)NCc1cccc(C(F)(F)F)c1Cl [Example E51, N-{[2-chloro-3-(trifluoromethyl)phenyl]methyl}-1-methyl-5-oxoprolinamide] | > 4.7
CN1C(=O)CC[C@H]1C(=O)NCc1ccc(F)c(Cl)c1Cl [Example E52, N-[(2,3-dichloro-4-fluorophenyl)methyl]-1-methyl-5-oxoprolinamide] | > 4.7
CN1C(=O)CC[C@H]1C(=O)NCc1ccc(F)c(F)c1Cl [Example E53, N-[(2-chloro-3,4-difluorophenyl)methyl]-1-methyl-5-oxoprolinamide] | > 4.7
Cc1cc(Cl)ccc1CNC(=O)[C@@H]1CCC(=O)N1C [Example E54, N-[(4-chloro-2-methylphenyl)methyl]-1-methyl-5-oxoprolinamide] | > 4.7
CN1C(=O)CC[C@H]1C(=O)NCc1ccc(F)cc1C(F)(F)F [Example E55, N-{[4-fluoro-2-(trifluoromethyl)phenyl]methyl}-1-methyl-5-oxoprolinamide] | > 4.7
CN1C(=O)CC[C@H]1C(=O)NCc1cccc(Cl)c1Cl [Example E56, N-[(2,3-dichlorophenyl)methyl]-1-methyl-5-oxoprolinamide] | > 4.7
CN1C(=O)CC[C@H]1C(=O)NCc1c(Cl)cccc1Cl [Example E57, N-[(2,6-dichlorophenyl)methyl]-1-methyl-5-oxoprolinamide] | > 4.7
Cc1c(Cl)cccc1CNC(=O)[C@@H]1CCC(=O)N1C [Example E58, N-[(3-chloro-2-methylphenyl)methyl]-1-methyl-5-oxoprolinamide] | > 4.7
CN1C(=O)CC[C@H]1C(=O)NCc1cccc(C(F)(F)F)c1F [Example E59, N-{[2-fluoro-3-(trifluoromethyl)phenyl]methyl}-1-methyl-5-oxoprolinamide] | > 4.7
CN1C(=O)CC[C@H]1C(=O)NCc1cccc(Cl)c1F [Example E60, N-[(3-chloro-2-fluorophenyl)methyl]-1-methyl-5-oxoprolinamide] | > 4.7
Cc1cc(Cl)cc(Cl)c1CNC(=O)[C@@H]1CCC(=O)N1C [Example E61, N-[(2,4-dichloro-6-methylphenyl)methyl]-1-methyl-5-oxoprolinamide] | > 4.7
Cc1c(CNC(=O)[C@@H]2CCC(=O)N2C)cccc1C(F)(F)F [Example E62, 1-methyl-N-{[2-methyl-3-(trifluoromethyl)phenyl]methyl}-5-oxoprolinamide] | > 4.7
CN1C(=O)CC[C@H]1C(=O)NCc1ccc(F)cc1Br [Example E63, N-[(2-bromo-4-fluorophenyl)methyl]-1-methyl-5-oxoprolinamide] | > 4.7
CN1C(=O)CC[C@H]1C(=O)NCc1cccc(F)c1C(F)(F)F [Example E64, N-{[3-fluoro-2-(trifluoromethyl)phenyl]methyl}-1-methyl-5-oxoprolinamide] | > 4.7
